In the supplement of paper PMC11006884:
The entries are a selection whose mix differs from that of the whole data set. The data scatter; read single values as rough.

Protein sequences, listed by entry. Tags and fused reporters are not part of them. Lines headed by an entry give the natural chain unless they say otherwise; changes in a name come on top.
UniProt Q15393: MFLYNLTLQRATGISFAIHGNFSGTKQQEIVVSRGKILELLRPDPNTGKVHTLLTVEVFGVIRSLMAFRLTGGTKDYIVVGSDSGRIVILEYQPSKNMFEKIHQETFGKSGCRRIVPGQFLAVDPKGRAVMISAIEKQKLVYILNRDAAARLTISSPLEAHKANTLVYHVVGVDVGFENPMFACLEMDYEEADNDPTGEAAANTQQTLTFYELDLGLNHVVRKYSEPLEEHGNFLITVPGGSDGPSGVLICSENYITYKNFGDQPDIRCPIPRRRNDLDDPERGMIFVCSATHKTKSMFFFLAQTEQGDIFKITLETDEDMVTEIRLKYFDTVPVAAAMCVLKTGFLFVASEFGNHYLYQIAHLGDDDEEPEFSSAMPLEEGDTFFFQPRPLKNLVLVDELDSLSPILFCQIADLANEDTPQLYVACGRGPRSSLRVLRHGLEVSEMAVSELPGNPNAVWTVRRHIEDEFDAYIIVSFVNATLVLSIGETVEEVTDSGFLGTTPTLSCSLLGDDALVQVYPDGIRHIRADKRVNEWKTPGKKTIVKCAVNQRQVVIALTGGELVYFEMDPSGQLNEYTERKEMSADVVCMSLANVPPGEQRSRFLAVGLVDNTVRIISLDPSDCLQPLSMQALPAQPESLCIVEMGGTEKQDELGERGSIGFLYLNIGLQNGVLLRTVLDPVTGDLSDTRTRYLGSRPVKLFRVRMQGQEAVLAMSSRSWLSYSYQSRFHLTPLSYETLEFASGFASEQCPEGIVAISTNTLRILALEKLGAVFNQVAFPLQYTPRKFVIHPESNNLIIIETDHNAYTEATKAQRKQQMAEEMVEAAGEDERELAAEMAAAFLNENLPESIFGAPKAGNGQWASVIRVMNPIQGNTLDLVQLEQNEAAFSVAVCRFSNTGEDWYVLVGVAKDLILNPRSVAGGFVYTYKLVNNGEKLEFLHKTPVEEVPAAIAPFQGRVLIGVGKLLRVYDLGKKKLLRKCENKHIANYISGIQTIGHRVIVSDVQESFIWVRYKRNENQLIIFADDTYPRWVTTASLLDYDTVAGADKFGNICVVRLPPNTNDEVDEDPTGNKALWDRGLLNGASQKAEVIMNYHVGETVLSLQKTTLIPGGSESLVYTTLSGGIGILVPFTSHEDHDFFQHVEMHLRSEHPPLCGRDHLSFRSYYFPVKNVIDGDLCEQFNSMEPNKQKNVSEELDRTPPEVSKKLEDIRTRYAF
UniProt Q32MZ4: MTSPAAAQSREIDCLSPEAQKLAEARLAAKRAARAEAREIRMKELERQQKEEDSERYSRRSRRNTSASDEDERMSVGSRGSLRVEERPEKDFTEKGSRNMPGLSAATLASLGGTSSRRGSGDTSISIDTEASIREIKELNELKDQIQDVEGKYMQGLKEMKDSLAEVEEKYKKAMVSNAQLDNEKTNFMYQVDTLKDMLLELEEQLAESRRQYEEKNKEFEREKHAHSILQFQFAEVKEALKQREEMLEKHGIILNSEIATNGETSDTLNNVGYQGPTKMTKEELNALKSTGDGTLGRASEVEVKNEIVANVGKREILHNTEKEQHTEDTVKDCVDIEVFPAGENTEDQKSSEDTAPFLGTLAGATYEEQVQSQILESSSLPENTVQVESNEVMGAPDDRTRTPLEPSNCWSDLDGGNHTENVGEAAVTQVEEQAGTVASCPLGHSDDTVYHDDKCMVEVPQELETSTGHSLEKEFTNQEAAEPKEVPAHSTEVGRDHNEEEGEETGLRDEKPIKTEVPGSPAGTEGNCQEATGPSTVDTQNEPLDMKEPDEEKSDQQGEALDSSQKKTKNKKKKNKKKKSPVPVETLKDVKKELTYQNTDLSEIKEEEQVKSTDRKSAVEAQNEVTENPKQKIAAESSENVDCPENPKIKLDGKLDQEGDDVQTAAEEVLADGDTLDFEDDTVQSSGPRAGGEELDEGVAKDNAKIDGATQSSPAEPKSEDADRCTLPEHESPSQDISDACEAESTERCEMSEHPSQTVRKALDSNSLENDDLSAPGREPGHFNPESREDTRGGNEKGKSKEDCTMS
UniProt Q15637: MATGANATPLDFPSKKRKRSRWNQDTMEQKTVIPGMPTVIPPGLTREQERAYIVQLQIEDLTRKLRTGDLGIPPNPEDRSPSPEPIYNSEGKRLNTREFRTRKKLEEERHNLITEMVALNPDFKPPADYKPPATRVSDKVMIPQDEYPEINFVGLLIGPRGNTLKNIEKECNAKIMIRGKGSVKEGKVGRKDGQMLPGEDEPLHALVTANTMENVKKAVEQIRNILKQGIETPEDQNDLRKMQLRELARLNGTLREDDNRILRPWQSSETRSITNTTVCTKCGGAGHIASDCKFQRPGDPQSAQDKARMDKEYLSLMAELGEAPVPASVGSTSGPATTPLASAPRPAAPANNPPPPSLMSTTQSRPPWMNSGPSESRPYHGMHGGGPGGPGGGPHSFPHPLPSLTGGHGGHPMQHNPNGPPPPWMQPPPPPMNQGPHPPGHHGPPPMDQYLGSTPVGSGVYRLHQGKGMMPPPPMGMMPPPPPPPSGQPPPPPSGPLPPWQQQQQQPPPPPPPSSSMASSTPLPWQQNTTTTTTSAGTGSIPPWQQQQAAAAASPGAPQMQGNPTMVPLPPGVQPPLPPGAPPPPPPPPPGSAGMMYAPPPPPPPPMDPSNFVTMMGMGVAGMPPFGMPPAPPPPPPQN
UniProt Q15345: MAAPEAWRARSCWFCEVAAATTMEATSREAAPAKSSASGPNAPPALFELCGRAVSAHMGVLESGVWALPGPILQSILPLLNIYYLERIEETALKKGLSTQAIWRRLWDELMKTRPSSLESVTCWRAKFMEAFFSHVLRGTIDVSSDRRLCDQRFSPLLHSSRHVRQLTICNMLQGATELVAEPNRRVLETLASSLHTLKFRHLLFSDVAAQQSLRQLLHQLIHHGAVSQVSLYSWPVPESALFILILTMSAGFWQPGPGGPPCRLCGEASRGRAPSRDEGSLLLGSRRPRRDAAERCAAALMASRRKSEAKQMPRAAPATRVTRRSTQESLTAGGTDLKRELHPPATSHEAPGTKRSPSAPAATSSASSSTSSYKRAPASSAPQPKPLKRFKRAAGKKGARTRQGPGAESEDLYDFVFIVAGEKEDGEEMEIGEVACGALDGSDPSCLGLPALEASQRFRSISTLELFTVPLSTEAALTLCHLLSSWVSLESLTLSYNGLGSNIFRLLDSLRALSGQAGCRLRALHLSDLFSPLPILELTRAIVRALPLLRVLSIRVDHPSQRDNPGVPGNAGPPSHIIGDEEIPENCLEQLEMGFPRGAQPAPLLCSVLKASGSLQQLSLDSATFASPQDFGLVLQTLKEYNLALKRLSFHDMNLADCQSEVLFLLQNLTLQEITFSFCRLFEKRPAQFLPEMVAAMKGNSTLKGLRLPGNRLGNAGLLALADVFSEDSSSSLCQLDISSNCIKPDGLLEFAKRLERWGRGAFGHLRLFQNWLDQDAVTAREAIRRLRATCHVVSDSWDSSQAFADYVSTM
UniProt Q15369, whole entry: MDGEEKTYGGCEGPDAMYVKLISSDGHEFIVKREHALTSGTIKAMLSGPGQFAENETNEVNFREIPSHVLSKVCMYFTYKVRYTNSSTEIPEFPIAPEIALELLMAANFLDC
UniProt Q15813: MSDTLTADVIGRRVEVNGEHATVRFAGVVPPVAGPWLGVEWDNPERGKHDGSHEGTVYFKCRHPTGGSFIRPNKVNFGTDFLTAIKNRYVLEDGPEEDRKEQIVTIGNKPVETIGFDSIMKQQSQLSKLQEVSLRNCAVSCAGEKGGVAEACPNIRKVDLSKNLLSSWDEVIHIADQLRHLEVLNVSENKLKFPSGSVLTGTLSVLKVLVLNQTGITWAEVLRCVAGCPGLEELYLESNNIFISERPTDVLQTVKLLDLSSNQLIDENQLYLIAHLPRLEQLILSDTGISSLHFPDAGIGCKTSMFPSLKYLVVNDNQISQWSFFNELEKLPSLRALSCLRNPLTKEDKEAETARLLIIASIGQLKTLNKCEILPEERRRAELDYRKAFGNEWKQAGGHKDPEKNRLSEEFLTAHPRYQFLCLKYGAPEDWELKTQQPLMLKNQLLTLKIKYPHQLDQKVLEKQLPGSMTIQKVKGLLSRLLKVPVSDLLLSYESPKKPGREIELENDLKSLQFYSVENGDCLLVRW
UniProt Q16698: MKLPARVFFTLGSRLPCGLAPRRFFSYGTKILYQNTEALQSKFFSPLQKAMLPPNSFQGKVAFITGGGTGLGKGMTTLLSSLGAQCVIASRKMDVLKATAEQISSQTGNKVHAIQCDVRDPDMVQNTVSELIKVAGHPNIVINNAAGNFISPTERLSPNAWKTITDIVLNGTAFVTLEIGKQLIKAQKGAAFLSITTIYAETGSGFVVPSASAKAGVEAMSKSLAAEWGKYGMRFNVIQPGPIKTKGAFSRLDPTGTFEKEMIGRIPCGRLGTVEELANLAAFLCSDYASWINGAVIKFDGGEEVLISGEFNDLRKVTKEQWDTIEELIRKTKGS
UniProt Q15154: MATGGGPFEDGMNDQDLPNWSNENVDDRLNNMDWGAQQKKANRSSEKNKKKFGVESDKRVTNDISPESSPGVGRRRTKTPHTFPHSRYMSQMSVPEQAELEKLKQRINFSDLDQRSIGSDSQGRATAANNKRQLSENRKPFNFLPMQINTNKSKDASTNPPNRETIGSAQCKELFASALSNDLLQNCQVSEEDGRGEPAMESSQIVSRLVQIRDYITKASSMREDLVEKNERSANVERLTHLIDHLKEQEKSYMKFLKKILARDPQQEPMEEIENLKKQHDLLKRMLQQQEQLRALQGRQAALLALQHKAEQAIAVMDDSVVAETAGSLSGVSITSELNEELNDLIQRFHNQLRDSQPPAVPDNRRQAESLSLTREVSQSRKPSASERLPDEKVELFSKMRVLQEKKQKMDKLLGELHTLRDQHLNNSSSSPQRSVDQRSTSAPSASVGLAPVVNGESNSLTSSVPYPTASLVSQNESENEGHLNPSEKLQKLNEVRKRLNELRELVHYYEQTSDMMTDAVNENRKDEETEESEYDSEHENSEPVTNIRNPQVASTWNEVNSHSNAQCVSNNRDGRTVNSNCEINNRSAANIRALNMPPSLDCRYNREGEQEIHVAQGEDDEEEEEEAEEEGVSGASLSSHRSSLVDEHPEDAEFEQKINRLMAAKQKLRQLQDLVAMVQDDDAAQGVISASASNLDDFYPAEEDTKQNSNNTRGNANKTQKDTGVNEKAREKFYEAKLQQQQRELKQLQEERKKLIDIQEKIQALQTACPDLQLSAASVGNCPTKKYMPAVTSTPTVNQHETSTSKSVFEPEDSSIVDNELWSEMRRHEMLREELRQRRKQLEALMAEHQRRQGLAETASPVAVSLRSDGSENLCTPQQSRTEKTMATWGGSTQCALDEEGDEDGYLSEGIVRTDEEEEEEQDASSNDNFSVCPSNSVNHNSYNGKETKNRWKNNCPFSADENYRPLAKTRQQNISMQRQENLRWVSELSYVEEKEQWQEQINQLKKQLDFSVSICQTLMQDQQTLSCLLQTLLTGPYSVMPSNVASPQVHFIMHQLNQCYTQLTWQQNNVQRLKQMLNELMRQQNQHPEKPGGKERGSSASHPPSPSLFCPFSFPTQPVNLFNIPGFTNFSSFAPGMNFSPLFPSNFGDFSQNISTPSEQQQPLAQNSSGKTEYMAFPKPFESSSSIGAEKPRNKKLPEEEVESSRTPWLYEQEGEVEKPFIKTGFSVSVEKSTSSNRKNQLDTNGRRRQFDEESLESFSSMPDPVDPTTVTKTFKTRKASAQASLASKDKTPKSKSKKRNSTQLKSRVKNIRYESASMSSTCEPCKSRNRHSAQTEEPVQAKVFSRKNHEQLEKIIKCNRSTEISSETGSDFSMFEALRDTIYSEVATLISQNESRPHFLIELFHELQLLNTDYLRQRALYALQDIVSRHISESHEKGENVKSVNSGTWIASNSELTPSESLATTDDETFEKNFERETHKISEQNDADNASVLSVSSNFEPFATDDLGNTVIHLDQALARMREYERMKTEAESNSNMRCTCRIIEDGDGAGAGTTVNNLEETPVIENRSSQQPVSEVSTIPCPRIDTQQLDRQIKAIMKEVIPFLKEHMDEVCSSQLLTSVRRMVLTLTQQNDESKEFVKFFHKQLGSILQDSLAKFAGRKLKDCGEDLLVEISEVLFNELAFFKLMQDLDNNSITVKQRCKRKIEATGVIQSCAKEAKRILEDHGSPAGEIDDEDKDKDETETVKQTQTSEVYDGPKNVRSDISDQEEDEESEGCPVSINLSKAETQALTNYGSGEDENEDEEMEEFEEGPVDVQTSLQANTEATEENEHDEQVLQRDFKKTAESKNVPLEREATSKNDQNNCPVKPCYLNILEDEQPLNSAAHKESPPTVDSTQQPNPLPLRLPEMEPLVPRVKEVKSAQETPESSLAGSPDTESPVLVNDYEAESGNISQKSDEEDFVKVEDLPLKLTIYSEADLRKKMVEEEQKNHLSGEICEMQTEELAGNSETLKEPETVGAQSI

compound: COC(=O)/C=C/c1ccccc1 [methyl cinnamate]; experiment: log2 ratio of iodoacetamide-alkyne labeling of the cysteine site, DMSO over compound (competition); higher = stronger covalent engagement of the cysteine by the compound, active = 1 or more; details: 500 µM; treatment time 1 h; system: HEK293T cell lysate
In short: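 After 1 h at ambient temperature with vehicle or electrophile (500 µM), HEK293T lysate (2 mg/mL) was labelled for 1 h with iodoacetamide alkyne and clicked to sCIP-TMT reagents. Pooled samples were trypsin-digested overnight at 37 °C, streptavidin-enriched, acid-eluted and analysed by Orbitrap Eclipse LC-MS/MS with FAIMS, then quantified in FragPipe over three replicates with duplicate channels. A cysteine's log2 competition ratio is its mean control-channel over mean compound-channel reporter intensity. Cysteines quantified in only one replicate were not included.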

log2 ratio of iodoacetamide-alkyne labeling, inactive:
SS18 C34 (UniProt Q15532) 0.0882
HERC1 C1941 (UniProt Q15751) 0.174
UniProt Q15149_C3821 -0.0457
SUZ12 C494 (UniProt Q15022) 0.0236
DHCR24 C91 (UniProt Q15392) 0.222
SF3B3 C1179 (UniProt Q15393) 0.0366
GLYR1 C303 (UniProt Q49A26) 0.207
LRRFIP1 C644 (UniProt Q32MZ4) 0.203
SF1 C279 (UniProt Q15637) 0.00972
ETFDH C561 (UniProt Q16134) 0.0665
SF3B3 C1054 (UniProt Q15393) 0.606
CCDC6 C27 (UniProt Q16204) 0.366
DBN1 C308 (UniProt Q16643) -0.0681
LRRFIP1 C805 (UniProt Q32MZ4) 0.427
SETDB1 C92 (UniProt Q15047) 0.189
LRRC41 C588 (UniProt Q15345) 0.0228
UniProt Q15369_C11 0.134
SHROOM1 C376 (UniProt Q2M3G4) -0.0353
TBCE C371 (UniProt Q15813) 0.389
HNRNPUL2 C538 (UniProt Q1KMD3) 0.149
PDS5A C1093 (UniProt Q29RF7) 0.258
LLGL1 C1059 (UniProt Q15334) 0.258
EFTUD2 C842 (UniProt Q15029) 0.336
GUK1 C98 (UniProt Q16774) -0.0425
TRIP6 C387 (UniProt Q15654) -0.0561
SURF2 C111 (UniProt Q15527) 0.231
PPA1 C254 (UniProt Q15181) 0.125
TARBP2 C282 (UniProt Q15633) 0.255
DECR1 C116 (UniProt Q16698) 0.337
TRIP6 C399 (UniProt Q15654) 0.115
PCM1 C1999 (UniProt Q15154) -0.0893
NCAPD2 C816 (UniProt Q15021) 0.192
FAM98B C216 (UniProt Q52LJ0) -0.0153
UniProt Q16512_C317 -0.0584
MTERF2 C288 (UniProt Q49AM1) -0.164
KIF14 C471 (UniProt Q15058) 0.177
TWISTNB C28 (UniProt Q3B726) 0.461

An excerpt of the results above, as a working copy:
log2 ratio of iodoacetamide-alkyne labeling, inactive:
SUZ12 C494 (UniProt Q15022) 0.0236
DHCR24 C91 (UniProt Q15392) 0.222
SF3B3 C1179 (UniProt Q15393) 0.0366
GLYR1 C303 (UniProt Q49A26) 0.207
LRRFIP1 C644 (UniProt Q32MZ4) 0.203
SF1 C279 (UniProt Q15637) 0.00972
ETFDH C561 (UniProt Q16134) 0.0665
SF3B3 C1054 (UniProt Q15393) 0.606
CCDC6 C27 (UniProt Q16204) 0.366
DBN1 C308 (UniProt Q16643) -0.0681
